From the supplement of paper PMC12819154, “High-throughput peptide-centric local stability assay extends protein–ligand identification to membrane proteins, tissues and bacteria” (Nature Structural & Molecular Biology, 2025)
This is one part of the list. Most values lie at the level of the controls, where differences are scatter.

Amino acid sequences for entries named in this document (tags omitted). A change or cut given only in a name is not applied to a line headed by its entry.
UniProt Q8N5W9: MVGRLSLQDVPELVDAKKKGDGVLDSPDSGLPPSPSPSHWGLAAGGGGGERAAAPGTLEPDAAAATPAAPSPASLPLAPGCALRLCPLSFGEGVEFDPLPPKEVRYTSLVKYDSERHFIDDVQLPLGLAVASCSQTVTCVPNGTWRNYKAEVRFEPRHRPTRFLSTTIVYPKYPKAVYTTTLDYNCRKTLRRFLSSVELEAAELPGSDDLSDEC
UniProt Q8N9B5, whole entry: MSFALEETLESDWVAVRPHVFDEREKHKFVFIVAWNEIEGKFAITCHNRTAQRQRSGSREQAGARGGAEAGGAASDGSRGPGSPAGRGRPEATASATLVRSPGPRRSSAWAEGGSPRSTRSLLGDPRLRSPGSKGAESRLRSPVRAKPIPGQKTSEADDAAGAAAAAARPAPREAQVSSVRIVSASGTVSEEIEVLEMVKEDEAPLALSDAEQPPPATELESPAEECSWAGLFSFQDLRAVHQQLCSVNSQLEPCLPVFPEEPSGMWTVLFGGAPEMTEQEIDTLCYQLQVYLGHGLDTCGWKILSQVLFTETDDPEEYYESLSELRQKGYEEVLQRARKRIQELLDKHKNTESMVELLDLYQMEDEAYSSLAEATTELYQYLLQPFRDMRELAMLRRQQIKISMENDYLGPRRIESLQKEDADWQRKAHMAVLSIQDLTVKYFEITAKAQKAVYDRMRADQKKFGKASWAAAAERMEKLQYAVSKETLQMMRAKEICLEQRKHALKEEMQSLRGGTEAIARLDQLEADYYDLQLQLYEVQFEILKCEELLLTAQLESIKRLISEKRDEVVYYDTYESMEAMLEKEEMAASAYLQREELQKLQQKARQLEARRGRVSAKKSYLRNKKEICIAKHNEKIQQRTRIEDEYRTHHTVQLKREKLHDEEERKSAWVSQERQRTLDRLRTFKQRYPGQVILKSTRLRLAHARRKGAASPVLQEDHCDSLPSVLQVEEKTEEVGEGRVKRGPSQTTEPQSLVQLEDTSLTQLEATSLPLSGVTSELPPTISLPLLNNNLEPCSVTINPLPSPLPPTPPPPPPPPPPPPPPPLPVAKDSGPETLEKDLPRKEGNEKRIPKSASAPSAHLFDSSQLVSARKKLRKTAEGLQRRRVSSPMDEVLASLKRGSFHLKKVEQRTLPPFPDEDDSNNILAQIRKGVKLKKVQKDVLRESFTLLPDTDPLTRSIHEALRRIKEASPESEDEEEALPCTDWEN
UniProt Q8NB14: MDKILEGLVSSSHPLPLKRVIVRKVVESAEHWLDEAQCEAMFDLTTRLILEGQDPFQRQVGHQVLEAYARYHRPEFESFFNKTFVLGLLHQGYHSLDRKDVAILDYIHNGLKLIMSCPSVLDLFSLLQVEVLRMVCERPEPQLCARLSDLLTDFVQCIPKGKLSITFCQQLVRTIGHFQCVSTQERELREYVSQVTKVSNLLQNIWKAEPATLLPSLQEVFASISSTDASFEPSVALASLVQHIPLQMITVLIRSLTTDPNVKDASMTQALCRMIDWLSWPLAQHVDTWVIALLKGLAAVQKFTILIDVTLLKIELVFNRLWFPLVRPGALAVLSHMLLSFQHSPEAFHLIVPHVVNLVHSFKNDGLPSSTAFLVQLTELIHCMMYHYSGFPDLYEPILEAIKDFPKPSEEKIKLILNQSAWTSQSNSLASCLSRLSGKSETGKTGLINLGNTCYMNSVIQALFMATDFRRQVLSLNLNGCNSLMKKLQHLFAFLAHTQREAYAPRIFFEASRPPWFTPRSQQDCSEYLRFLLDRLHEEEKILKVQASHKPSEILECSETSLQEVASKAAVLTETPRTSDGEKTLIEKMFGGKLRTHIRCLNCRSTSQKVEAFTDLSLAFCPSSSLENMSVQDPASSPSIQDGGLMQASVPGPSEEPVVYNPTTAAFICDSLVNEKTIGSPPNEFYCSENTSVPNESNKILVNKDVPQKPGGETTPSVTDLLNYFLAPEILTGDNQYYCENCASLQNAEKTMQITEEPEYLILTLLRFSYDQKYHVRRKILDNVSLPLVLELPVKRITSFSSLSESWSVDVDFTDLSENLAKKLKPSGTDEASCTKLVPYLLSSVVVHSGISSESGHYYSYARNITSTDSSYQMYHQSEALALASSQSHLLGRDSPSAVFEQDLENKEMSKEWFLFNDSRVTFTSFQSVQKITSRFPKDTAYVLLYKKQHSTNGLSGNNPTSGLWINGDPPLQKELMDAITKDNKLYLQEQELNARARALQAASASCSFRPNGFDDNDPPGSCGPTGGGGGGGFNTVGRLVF
UniProt Q8N9N7: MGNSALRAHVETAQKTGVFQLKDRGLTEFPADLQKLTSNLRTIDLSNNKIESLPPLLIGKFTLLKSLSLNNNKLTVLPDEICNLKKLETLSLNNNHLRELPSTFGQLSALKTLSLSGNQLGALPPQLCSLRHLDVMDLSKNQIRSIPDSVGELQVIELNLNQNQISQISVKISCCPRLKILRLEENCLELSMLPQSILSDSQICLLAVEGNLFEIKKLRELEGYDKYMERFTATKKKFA
UniProt Q8N3R9: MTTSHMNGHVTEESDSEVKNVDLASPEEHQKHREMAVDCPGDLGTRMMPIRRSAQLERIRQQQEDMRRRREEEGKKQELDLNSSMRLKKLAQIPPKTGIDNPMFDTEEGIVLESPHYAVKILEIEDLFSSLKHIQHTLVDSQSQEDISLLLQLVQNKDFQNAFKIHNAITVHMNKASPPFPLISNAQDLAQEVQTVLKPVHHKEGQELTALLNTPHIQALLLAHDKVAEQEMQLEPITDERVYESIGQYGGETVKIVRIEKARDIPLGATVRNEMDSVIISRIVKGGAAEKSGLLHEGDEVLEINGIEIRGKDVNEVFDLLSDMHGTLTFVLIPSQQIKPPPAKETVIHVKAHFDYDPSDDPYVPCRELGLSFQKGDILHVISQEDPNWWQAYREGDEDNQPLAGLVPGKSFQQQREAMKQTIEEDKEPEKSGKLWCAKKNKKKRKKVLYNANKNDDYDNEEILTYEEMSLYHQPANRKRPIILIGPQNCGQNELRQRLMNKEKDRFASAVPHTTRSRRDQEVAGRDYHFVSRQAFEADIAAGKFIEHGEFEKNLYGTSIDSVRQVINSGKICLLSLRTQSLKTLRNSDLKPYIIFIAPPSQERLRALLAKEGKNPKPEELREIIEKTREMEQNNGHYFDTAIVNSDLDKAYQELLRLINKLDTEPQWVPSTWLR
UniProt Q8NBF6: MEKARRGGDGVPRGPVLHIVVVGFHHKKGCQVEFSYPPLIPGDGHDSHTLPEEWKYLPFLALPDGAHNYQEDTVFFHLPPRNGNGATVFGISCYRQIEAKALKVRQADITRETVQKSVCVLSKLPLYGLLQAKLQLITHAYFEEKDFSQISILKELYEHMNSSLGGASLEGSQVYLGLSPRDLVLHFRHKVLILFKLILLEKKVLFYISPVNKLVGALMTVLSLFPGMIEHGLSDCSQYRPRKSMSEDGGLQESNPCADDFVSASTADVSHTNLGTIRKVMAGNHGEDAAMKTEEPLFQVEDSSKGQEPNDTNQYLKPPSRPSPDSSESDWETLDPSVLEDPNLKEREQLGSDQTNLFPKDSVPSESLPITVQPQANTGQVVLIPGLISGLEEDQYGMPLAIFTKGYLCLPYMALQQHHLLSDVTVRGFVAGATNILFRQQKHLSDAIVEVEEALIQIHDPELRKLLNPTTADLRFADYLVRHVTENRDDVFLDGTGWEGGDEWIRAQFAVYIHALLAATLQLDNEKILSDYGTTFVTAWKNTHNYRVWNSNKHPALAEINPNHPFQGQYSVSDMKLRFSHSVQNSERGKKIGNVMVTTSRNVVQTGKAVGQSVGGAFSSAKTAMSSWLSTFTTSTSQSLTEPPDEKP
UniProt Q8NDP4: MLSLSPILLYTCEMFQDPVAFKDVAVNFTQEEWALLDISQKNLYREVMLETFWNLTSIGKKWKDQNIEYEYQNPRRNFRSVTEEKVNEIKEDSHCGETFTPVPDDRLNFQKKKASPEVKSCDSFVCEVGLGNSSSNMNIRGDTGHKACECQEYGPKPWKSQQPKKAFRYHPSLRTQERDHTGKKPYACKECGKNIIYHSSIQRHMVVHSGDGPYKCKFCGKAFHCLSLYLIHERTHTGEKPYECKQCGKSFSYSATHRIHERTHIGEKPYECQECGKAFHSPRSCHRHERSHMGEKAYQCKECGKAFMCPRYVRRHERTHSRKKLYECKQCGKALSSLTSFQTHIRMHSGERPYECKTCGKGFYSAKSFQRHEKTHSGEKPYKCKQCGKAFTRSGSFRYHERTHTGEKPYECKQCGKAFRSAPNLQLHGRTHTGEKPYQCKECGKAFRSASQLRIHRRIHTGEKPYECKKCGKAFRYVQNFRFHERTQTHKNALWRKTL
UniProt Q8N8A6: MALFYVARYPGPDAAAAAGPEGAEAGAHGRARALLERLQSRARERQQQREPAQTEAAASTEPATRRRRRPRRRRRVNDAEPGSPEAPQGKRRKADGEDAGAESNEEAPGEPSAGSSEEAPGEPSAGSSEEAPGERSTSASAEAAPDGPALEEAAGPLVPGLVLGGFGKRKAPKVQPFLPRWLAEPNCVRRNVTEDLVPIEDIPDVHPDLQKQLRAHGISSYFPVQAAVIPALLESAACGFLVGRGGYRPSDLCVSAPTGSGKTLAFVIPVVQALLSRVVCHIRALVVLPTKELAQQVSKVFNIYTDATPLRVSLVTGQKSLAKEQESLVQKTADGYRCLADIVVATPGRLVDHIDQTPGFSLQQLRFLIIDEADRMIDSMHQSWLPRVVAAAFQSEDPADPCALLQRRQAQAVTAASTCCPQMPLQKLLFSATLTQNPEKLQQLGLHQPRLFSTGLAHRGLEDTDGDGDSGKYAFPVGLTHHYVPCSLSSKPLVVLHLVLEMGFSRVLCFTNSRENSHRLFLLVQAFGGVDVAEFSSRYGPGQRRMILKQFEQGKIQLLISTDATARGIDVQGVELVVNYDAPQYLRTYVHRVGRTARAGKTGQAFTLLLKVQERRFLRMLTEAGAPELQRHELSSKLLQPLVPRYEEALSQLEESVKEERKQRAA
UniProt Q8N573: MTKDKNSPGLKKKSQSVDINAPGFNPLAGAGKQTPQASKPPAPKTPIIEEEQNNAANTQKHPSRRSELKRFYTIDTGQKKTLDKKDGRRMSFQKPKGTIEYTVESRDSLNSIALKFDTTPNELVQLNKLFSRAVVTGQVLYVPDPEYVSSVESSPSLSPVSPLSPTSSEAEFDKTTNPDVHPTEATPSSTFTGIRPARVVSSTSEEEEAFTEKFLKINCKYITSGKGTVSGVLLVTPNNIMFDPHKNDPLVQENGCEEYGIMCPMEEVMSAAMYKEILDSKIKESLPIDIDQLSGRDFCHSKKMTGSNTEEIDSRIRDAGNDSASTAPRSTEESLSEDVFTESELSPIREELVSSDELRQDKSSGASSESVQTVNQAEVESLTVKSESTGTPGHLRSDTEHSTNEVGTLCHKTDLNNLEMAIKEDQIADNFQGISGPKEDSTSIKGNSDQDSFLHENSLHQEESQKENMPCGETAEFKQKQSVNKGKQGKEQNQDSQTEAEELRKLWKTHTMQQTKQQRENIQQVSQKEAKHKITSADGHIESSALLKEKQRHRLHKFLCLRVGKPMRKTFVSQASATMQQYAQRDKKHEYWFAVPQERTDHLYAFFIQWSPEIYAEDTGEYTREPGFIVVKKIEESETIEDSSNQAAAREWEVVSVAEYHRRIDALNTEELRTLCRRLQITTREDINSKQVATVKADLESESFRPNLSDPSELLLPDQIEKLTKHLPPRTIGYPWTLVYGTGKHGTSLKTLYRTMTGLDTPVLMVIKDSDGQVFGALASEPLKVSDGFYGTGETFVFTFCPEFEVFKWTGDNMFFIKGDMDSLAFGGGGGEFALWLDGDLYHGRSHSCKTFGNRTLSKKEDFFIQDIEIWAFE
UniProt Q8NG68: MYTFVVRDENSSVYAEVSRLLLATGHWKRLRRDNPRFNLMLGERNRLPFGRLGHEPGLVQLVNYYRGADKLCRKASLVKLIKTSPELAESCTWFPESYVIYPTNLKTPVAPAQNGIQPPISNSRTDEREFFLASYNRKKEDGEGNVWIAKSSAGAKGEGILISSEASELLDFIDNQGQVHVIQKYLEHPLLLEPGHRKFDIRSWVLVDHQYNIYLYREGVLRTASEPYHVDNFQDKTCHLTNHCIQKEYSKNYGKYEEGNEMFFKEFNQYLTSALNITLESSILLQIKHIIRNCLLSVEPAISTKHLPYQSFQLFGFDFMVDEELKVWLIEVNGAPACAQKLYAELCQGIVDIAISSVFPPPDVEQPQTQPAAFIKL

These targets were tested with Cc1nc(Nc2ncc(C(=O)Nc3c(C)cccc3Cl)s2)cc(N2CCN(CCO)CC2)n1 [dasatinib] (assay: log2 fold change of tryptic peptide abundance, ligand vs vehicle (limited proteolysis) (log2 ratio); higher = more trypsin-susceptible (destabilized)). Conditions: ligand concentration: 5 uM; sample: K562 cleared lysate.

Q: With “RFLNB (peptide sequence: AVYTTTLDYNCRK, peptide start residue: 176) (UniProt Q8N5W9)” as the target, how does the log2 fold change read?
A: The log2 fold change was -0.119.

Q: For “JMY (peptide sequence: RVSSPMDEVLASLKR, peptide start residue: 886) (UniProt Q8N9B5)”, which log2 fold change is on record?
A: The log2 fold change was -0.835.

Q: With “USP38 (peptide sequence: ILEGLVSSSHPLPLKR, peptide start residue: 4) (UniProt Q8NB14)” as the target, how does the log2 fold change read?
A: The log2 fold change was -0.209.

Q: Which log2 fold change does the source give for “LRRC57 (peptide sequence: AHVETAQK, peptide start residue: 8) (UniProt Q8N9N7)” here?
A: The log2 fold change was -0.153.

Q: How did the log2 fold change turn out when “MPP5 (peptide sequence: EGKNPKPEELR, peptide start residue: 612) (UniProt Q8N3R9)” was run?
A: Its log2 fold change is -0.33.

Q: With “AVL9 (peptide sequence: GPVLHIVVVGFHHK, peptide start residue: 14) (UniProt Q8NBF6)” as the target, how does the log2 fold change read?
A: Its log2 fold change is 0.556.

Q: Which log2 fold change does the source give for “UniProt Q8NDP4 (peptide sequence: SFSYSATHR, peptide start residue: 236)” here?
A: Its log2 fold change is 0.0259.

Q: With “DDX51 (peptide sequence: WLAEPNCVR, peptide start residue: 181) (UniProt Q8N8A6)” as the target, how does the log2 fold change read?
A: The log2 fold change was -0.148.

Q: How did the log2 fold change turn out when “OXR1 (peptide sequence: TDLNNLEMAIK, peptide start residue: 413) (UniProt Q8N573)” was run?
A: The log2 fold change was -0.611.

Q: Which log2 fold change does the source give for “ANKRD13C (peptide sequence: GGNIMEQNFEPIRR, peptide start residue: 396) (UniProt Q8N6S4)” here?
A: Its log2 fold change is 0.324.

Q: For “TTL (peptide sequence: LGHEPGLVQLVNYYR, peptide start residue: 52) (UniProt Q8NG68)”, which log2 fold change is on record?
A: Its log2 fold change is 0.197.
